We go through 42 sequences from paper PMC7819943, “Rice protein-binding microarrays: a tool to detect cis-acting elements near promoter regions in rice”.

Amino acid sequences for entries named in this document (tags omitted).
UniProt Q0JBA9, entry or part of it: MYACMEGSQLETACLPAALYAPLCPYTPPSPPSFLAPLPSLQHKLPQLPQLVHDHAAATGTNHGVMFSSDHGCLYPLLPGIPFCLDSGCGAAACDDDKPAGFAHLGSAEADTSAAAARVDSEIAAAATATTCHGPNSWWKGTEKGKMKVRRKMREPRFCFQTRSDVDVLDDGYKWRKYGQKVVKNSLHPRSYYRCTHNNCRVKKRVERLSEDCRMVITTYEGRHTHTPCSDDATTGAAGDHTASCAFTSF

The other results are listed elsewhere or left out.

The target in the assay is OsWRKY34 (Oryza sativa, UniProt Q0JBA9 1-250). Briefly: protein-binding microarray (RPBM); PBS, 2% BSA, 51.3 ng/ul salmon testes DNA, 50 uM zinc acetate, 200 nM TF, 25 C, 1 h; high values mean tight binding. The following applies: protein: recombinant; tags: N-terminal polyhistidine and DsRed monomer fusion (pET32a); label: CyDye5-dUTP incorporated in the synthesized complementary strand; 3' TTTTT single-stranded linker to array surface; dsDNA, one strand shown. An outline of the steps:
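The binding signal for each feature is its fluorescence intensity in arbitrary units. An Axon 4000B scanner was used to read a custom Agilent array that had been made double-stranded with Cy5-dUTP primer extension, blocked with 2% BSA, incubated at 25 °C for 1 h with 200 nM protein in PBS, 2% BSA, salmon testes DNA and 50 µM zinc acetate, and washed. The protein was an N-terminal polyhistidine–DsRed transcription factor fusion from E. coli BL21-CodonPlus, purified on Ni–NTA.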
In the case of “ATCTCGCCCACGCCAGCTAAGCCTTTGTACGCACAACATGCGGAGTCACCTAGTGCAG”, the binding signal is 11700 fluorescence intensity (a.u.).

As to “CCTGAGTTAGTAGTCGACTACTGTGTTTTTTTTTTCATGTCGGAGTCACCTAGTGCAG”, the binding signal was 9880 fluorescence intensity (a.u.).

With “CGGGAGCCAGGTGGATTGGGCTGAGGTGGTGGTGGTGGGCCGGAGTCACCTAGTGCAG”, the binding signal was 11900 fluorescence intensity (a.u.).

In the case of “CCTCCTTGCCCCGATTCGCCGCCGGTCTCCTCCCCTCCGCCGGAGTCACCTAGTGCAG”, the binding signal was 9180 fluorescence intensity (a.u.).

For the sequence “TGCAAGCTCCGCCGTTTGTGTGTAATGGGGTTTCCCAAATCGGAGTCACCTAGTGCAG”, the binding signal is 8230 fluorescence intensity (a.u.).

In the case of “AGTTTTTGCTTGTAACGTTTGACCACTCGTCTTATTTAATCGGAGTCACCTAGTGCAG”, the binding signal is 11700 fluorescence intensity (a.u.).

In the case of “TAGCCCTTGTCGTTTTCATGTAGAACTCTATTCATCCTTCCGGAGTCACCTAGTGCAG”, the binding signal was 11400 fluorescence intensity (a.u.).

Turning to “GGACACCTTACATCTATAGTTTCGTGATAGTTTCGTGATACGGAGTCACCTAGTGCAG”, the binding signal is 9330 fluorescence intensity (a.u.).

Regarding “ATCACATGTCATACACACACAACTTTTCAGTCACATCATCCGGAGTCACCTAGTGCAG”, the binding signal was 8940 fluorescence intensity (a.u.).

In the case of “CCGTGTAATGTTGATTGCGTCTTTCTAGGTTTAGTTTGCACGGAGTCACCTAGTGCAG”, the binding signal is 8100 fluorescence intensity (a.u.).

Regarding “TTGATCTCATGTCGCTGCTAGGTAATTCGGTTCTGTTTTACGGAGTCACCTAGTGCAG”, the binding signal was 11800 fluorescence intensity (a.u.).

Consider “CATCATTTTTCGCTTTCTATTTTGATTCCCCGTTGCCAAGCGGAGTCACCTAGTGCAG”, for which the binding signal is 8700 fluorescence intensity (a.u.).

Turning to “CATAGTGCACGATGTTCCCTACTTATATCCATTTTTATATCGGAGTCACCTAGTGCAG”, the binding signal was 8340 fluorescence intensity (a.u.).

Regarding “TCAGTGTGCGGGCAAACCTTCCTCATCCTTGCCCTTATCTCGGAGTCACCTAGTGCAG”, the binding signal is 8190 fluorescence intensity (a.u.).

For the sequence “GGCGGAATCCACCGTCTCACTGCGCGCCCTGCCCCGCCTGCGGAGTCACCTAGTGCAG”, the binding signal is 10700 fluorescence intensity (a.u.).

Consider “CCCTCTCCCTCGTTTTCTGCACGCACGCTTTTCAAACTGCCGGAGTCACCTAGTGCAG”, for which the binding signal was 8280 fluorescence intensity (a.u.).

Turning to “GATTTCGACCTCTGCCTATTAGGGTGCTCGGTCTCTGAGCCGGAGTCACCTAGTGCAG”, the binding signal was 8090 fluorescence intensity (a.u.).

Turning to “TTGCTGCTTATCTTGCATAGATACGGCCGGCTTTTCCCTTCGGAGTCACCTAGTGCAG”, the binding signal was 8390 fluorescence intensity (a.u.).

For “CCGCGTTTGCAGATCGATTTCGTTTTACTCCTTTCCCACACGGAGTCACCTAGTGCAG”, the binding signal is 10300 fluorescence intensity (a.u.).

On to “ATGTTGATTATCTCTCATGCATTATTATTATTTAATTAATCGGAGTCACCTAGTGCAG”, for which the binding signal is 9070 fluorescence intensity (a.u.).

“CTAATTAAGCTACCCAACCATCTGACATGGTTTACTACTTCGGAGTCACCTAGTGCAG”: the binding signal is 8420 fluorescence intensity (a.u.).

“ACTTATTTTAGTTTGACTTGATTTTTCATCAAATGTTTTTCGGAGTCACCTAGTGCAG”: the binding signal was 10400 fluorescence intensity (a.u.).

As to “GCTGTCCACGACGTCGTCTTCGTCGTCCTCCTCTTCGCCGCGGAGTCACCTAGTGCAG”, the binding signal is 8180 fluorescence intensity (a.u.).

With “TGGTCAAAAACGTCTCTGCCCATGACCACTCGCCCAAAACCGGAGTCACCTAGTGCAG”, the binding signal was 8130 fluorescence intensity (a.u.).

With “CCACGATATTTTAAGTTATACTATCTCCGTCTCAAAATATCGGAGTCACCTAGTGCAG”, the binding signal was 9130 fluorescence intensity (a.u.).

In the case of “TGGTACTGCGTGCGGTGGGGTAGGAGTAGGAGGTTTCTTTCGGAGTCACCTAGTGCAG”, the binding signal is 16600 fluorescence intensity (a.u.).

“AATATGTGCCGGTAGCGCGTACGCGTCCACTAGCAACCCCCGGAGTCACCTAGTGCAG”: the binding signal is 8180 fluorescence intensity (a.u.).

Turning to “TTCCCGTGCTAACGTTTGACTGTCTGTCTTATATGAAATTCGGAGTCACCTAGTGCAG”, the binding signal was 9390 fluorescence intensity (a.u.).

On to “CCACCTGAGAAACATACTACTCCCTGCCATACACCACCCTCGGAGTCACCTAGTGCAG”, for which the binding signal was 8050 fluorescence intensity (a.u.).

“AAATGTGATGCTGCAACTTGTCCGTCCCATGTATGAATTCCGGAGTCACCTAGTGCAG”: the binding signal was 8420 fluorescence intensity (a.u.).

“CGTATCATACTGTACATTGTATCAACTGATCCTGACTCCGCGGAGTCACCTAGTGCAG”: the binding signal is 9030 fluorescence intensity (a.u.).

Consider “ATATCTTGCTACTTTGTCTTCTTCCAACCGATCCATACGCCGGAGTCACCTAGTGCAG”, for which the binding signal is 8790 fluorescence intensity (a.u.).

For “AACTTGGTGGGTTTGGTTTTGCTCTTTCTGTTGACCAAGCCGGAGTCACCTAGTGCAG”, the binding signal is 12000 fluorescence intensity (a.u.).

In the case of “CTTTCGCGTGGGCATCTCTTTCTTTCGCGTTCGCTTCCTTCGGAGTCACCTAGTGCAG”, the binding signal was 11000 fluorescence intensity (a.u.).

As to “ATCCACTCCAGTCCCGTCCCGTTTCCTTGCTGCCCGGCCGCGGAGTCACCTAGTGCAG”, the binding signal is 9660 fluorescence intensity (a.u.).

In the case of “TTTTTTTGCTTTTTCACTATTTTTTTATTTTGACGGACGACGGAGTCACCTAGTGCAG”, the binding signal was 9300 fluorescence intensity (a.u.).

On to “GCCTCCTCCATCCATGTCGGCGCCGCGGCTCTTCCCAACACGGAGTCACCTAGTGCAG”, for which the binding signal is 8250 fluorescence intensity (a.u.).

“CTGATCCGGGCTTTTGGTTCTCTGCCGTGCTGGGGTCTCTCGGAGTCACCTAGTGCAG”: the binding signal was 8720 fluorescence intensity (a.u.).

Take “ACCACATCCATCTTAACTATGTTTTTTCTTGCCAAGTATGCGGAGTCACCTAGTGCAG”: the binding signal is 8340 fluorescence intensity (a.u.).

As for “CCTAATTTGCGTGATTGGATTGGTTGGTTGTGTTGTAATGCGGAGTCACCTAGTGCAG”, the binding signal was 8730 fluorescence intensity (a.u.).

For “GCCAGTGGAGTTTCCTTTTTGTGCTCCTCGTGTTTGTTCTCGGAGTCACCTAGTGCAG”, the binding signal is 9140 fluorescence intensity (a.u.).

As to “TACTTCATTTGTTTAATTATTTCATGCACTACGGTTTTCTCGGAGTCACCTAGTGCAG”, the binding signal was 9530 fluorescence intensity (a.u.).
